Reference: article PMC12083247
No constants are given. Whether binding was seen depends on the method and setting. Binding seen in cells or lysates may run through a third protein. These calls come from enrichment with a bait or labelling near it, and not all partners need be listed.

target: CAPN2[C105S]-3xFlag-6xHis in complex with CAPNS1(86–268); test: affinity purification with mass spectrometry; substrate trapping: 3xFlag baits on anti-Flag agarose; HCT116 cytosol with 2 mM CaCl2 and E64; EGTA (5 mM) elutions analysed by high-resolution mass spectrometry; only the target purified

| Binder | binding |
| --- | --- |
| annexin A1 (protein, UniProt P04083 1-346) MAMVSEFLKQAWFIENEEQEYVQTVKSSKGGPGSAVSPYPTFNPSSDVAALHKAIMVKGVDEATIIDILTKRNNAQRQQIKAAYLQETGKPLDETLKKALTGHLEEVVLALLKTPAQFDADELRAAMKGLGTDEDTLIEILASRTNKEIRDINRVYREELKRDLAKDITSDTSGDFRNALLSLAKGDRSEDFGVNEDLADSDARALYEAGERRKGTDVNVFNTILTTRSYPQLRRVFQKYTKYSKHDMNKVLDLELKGDIEKCLTAIVKCATSKPAFFAEKLHQAMKGVGTRHKALIRIMVSRSEIDMNDIKAFYQKMYGISLCQAILDETKGDYEKILVALCGGN | binds |
| annexin A4 (protein, UniProt P09525 1-319) MATKGGTVKAASGFNAMEDAQTLRKAMKGLGTDEDAIISVLAYRNTAQRQEIRTAYKSTIGRDLIDDLKSELSGNFEQVIVGMMTPTVLYDVQELRRAMKGAGTDEGCLIEILASRTPEEIRRISQTYQQQYGRSLEDDIRSDTSFMFQRVLVSLSAGGRDEGNYLDDALVRQDAQDLYEAGEKKWGTDEVKFLTVLCSRNRNHLLHVFDEYKRISQKDIEQSIKSETSGSFEDALLAIVKCMRNKSAYFAEKLYKSMKGLGTDDNTLIRVMVSRAEIDMLDIRAHFKRLYGKSLYSFIKGDTSGDYRKVLLVLCGGDD | binds |

More lines, now with the values ahead:

| binding | Binder |
| --- | --- |
| binds | annexin A7 (protein, UniProt P20073 1-488) MSYPGYPPTGYPPFPGYPPAGQESSFPPSGQYPYPSGFPPMGGGAYPQVPSSGYPGAGGYPAPGGYPAPGGYPGAPQPGGAPSYPGVPPGQGFGVPPGGAGFSGYPQPPSQSYGGGPAQVPLPGGFPGGQMPSQYPGGQPTYPSQINTDSFSSYPVFSPVSLDYSSEPATVTQVTQGTIRPAANFDAIRDAEILRKAMKGFGTDEQAIVDVVANRSNDQRQKIKAAFKTSYGKDLIKDLKSELSGNMEELILALFMPPTYYDAWSLRKAMQGAGTQERVLIEILCTRTNQEIREIVRCYQSEFGRDLEKDIRSDTSGHFERLLVSMCQGNRDENQSINHQMAQEDAQRLYQAGEGRLGTDESCFNMILATRSFPQLRATMEAYSRMANRDLLSSVSREFSGYVESGLKTILQCALNRPAFFAERLYYAMKGAGTDDSTLVRIVVTRSEIDLVQIKQMFAQMYQKTLGTMIAGDTSGDYRRLLLAIVGQ |
| binds | annexin A6 (protein, UniProt P08133 1-673) MAKPAQGAKYRGSIHDFPGFDPNQDAEALYTAMKGFGSDKEAILDIITSRSNRQRQEVCQSYKSLYGKDLIADLKYELTGKFERLIVGLMRPPAYCDAKEIKDAISGIGTDEKCLIEILASRTNEQMHQLVAAYKDAYERDLEADIIGDTSGHFQKMLVVLLQGTREEDDVVSEDLVQQDVQDLYEAGELKWGTDEAQFIYILGNRSKQHLRLVFDEYLKTTGKPIEASIRGELSGDFEKLMLAVVKCIRSTPEYFAERLFKAMKGLGTRDNTLIRIMVSRSELDMLDIREIFRTKYEKSLYSMIKNDTSGEYKKTLLKLSGGDDDAAGQFFPEAAQVAYQMWELSAVARVELKGTVRPANDFNPDADAKALRKAMKGLGTDEDTIIDIITHRSNVQRQQIRQTFKSHFGRDLMTDLKSEISGDLARLILGLMMPPAHYDAKQLKKAMEGAGTDEKALIEILATRTNAEIRAINEAYKEDYHKSLEDALSSDTSGHFRRILISLATGHREEGGENLDQAREDAQVAAEILEIADTPSGDKTSLETRFMTILCTRSYPHLRRVFQEFIKMTNYDVEHTIKKEMSGDVRDAFVAIVQSVKNKPLFFADKLYKSMKGAGTDEKTLTRIMVSRSEIDLLNIRREFIEKYDKSLHQAIEGDTSGDFLKALLALCGGED |
